Experiment [1] deals with MSLN(V)-rFc protein (human) (UniProt Q13421). Kind of experiment: ELISA on coated MSLN(V)-Fc, anti-mouse IgG-HRP. (In general: In an ELISA, binding on a coated surface is turned into a signal by an enzyme label.)
For experiment [2], the target named is mesothelin V variant (human) (UniProt Q13421). Kind of experiment: stated in the shedding example (Example 9); assay not named.
The target in experiment [3] is MSLN(V)-rFc protein (human) (UniProt Q13421). Kind of experiment: ELISA on coated MSLN(V)-rFc (1 microgram/ml), anti-mouse IgG-HRP.
In experiment [4] the target is MSLN(M)-rFc protein (human) (UniProt Q13421). Kind of experiment: ELISA on coated MSLN(M)-Fc, anti-mouse IgG-HRP.
The target is the same in experiment [5]. The experiment in a line: ELISA on coated MSLN(M)-rFc (1 microgram/ml), anti-mouse IgG-HRP.

Amino acid sequences for entries named in this document (tags omitted). A change or cut given only in a name is not applied to a line headed by its entry.
UniProt Q13421: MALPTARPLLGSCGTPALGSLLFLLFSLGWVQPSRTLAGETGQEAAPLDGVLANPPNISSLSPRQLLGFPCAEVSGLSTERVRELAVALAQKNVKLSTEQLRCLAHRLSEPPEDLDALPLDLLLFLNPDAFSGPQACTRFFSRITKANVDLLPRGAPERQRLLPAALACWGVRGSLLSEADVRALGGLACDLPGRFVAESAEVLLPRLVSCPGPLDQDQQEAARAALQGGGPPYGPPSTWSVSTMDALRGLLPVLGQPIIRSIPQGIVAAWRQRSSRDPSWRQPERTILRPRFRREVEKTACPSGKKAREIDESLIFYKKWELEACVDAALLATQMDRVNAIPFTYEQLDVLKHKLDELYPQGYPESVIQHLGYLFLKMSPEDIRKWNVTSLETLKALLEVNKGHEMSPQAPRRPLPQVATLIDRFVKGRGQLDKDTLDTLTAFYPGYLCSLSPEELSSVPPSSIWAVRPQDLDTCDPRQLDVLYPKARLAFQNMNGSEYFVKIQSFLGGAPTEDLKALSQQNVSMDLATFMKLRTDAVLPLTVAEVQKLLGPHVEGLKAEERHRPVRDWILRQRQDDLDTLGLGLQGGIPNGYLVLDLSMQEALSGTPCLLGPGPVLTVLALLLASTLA

Positions count from the first letter of the chain named. No constants are given. Whether binding was seen depends on the method and setting. Some entries that bind do so weakly or less than the wild type.

B1: 15B6 anti-mesothelin antibody (IgG2b) (antibody, V domains shown)
VH: EVQLQQSGPVLVKPGASVKISCKASGYSFTGYYMHWVRQSLVKRLEWIGRINPYTGVPSYKHNFKDKASLTVDKSSSTAYMELHSLTSEDSAVYYCARELGGYWGQGTTLTVSS
VL: QAVVTQESALTTSPGETVTLTCRSSTGAVTTGNYPNWVQEKPDHLFTGLIAGTNNRAPGVPARFSGSLIGDKAALTITGAQTEDEAIYFCALWFSSHWVFGGGTKLTVL
In the case of B1, the binding entry in experiment [1], in experiment [2], in experiment [3], in experiment [4] and in experiment [5] was “binds” each time.

B2: 7B5 anti-mesothelin antibody (IgG1) (antibody, V domains shown)
VH: EVQLQQSGPELVKPGTSVKISCKASGYPFTGHYMHWVKQGHVKSLEWIGRINPYTGAINYNQNFKDKASLTVEKSSSTAYMGLHSLTSEDSAVYYCVRDLGGGYWGQGTTLTVSS
VL: B1 VL with G32S, P35A, T82P, I87M, Y88F, S95G
With B2, the binding result in experiment [4] was “binds”.

B3: 2B4 anti-mesothelin antibody (IgG2a) (antibody, V domains shown)
VH: B2 VH with T16A, T71S
VL: B1 VL with G32S, P35A, T82P, Y88F, F94Y
Turning to B3, in experiment [4], the binding result is “binds”.

The values above are taken from patent US20200247901A1.
